Data: PubChem BioAssay (EPA / NIEHS)
Several values for one entry are separate records, joined by “and”; a condition that tells them apart may be missing. Equal entries are not always repeated. Inconclusive results, whose numbers are uncertain, are shown with a selection of clear calls. A potency beside an inconclusive call is a rough fit, not a confirmed value. Activity calls are given as the source filed them. The calls were made as follows: active = hit-call score of the fitted dose curve at least 0.9, where 1 is the maximum; inconclusive = response in the unintended direction; inactive = score below 0.9.

Protein sequences, listed by entry. Tags and fused reporters are not part of them. Lines headed by an entry give the natural chain unless they say otherwise; changes in a name come on top.
UniProt Q92753: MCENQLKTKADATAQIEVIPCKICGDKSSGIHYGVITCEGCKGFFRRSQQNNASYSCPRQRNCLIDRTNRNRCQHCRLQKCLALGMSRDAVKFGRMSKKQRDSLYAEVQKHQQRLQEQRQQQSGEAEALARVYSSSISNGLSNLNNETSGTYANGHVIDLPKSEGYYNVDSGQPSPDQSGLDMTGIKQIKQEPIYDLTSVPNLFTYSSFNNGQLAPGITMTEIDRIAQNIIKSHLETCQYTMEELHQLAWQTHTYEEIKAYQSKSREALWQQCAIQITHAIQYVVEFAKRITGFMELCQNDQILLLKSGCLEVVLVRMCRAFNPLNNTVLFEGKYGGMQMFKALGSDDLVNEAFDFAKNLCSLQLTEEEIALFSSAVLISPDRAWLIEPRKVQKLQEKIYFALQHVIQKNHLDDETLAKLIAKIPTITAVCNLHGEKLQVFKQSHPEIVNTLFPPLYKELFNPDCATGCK

Each compound was assayed against human RAR-related Orphan Receptor beta (RORb), RORB (gene 6096) (UniProt Q92753) (assay: ATG_RORb_TRANS: Attagene TRANS-FACTORIAL HepG2 Assay for human RAR-related Orphan Receptor beta (RORb) (AID 2283010);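 as to AC50: potency for increased reporter mRNA meaning activation of RORb-Gal4 chimera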).
Protocol: ATG_TRANS is a cell-based, multiplexed-readout assay that uses HepG2, a human liver cell line, with measurements taken at 24 hours after chemical dosing in a 24-well plate.ATG_RORb_TRANS is one of 30 assay component(s) measured or calculated from the ATG_TRANS assay. It is designed to make measurements of mRNA induction, a form of inducible reporter, as detected with fluorescence intensity signals by Reverse transcription polymerase chain reaction (RT-PCR) and Capillary electrophoresis technology.Data from the assay component ATG_RORb_TRANS was analyzed into 1 assay endpoint. This assay endpoint, ATG_RORb_TRANS, was analyzed in the positive analysis fitting direction relative to DMSO as the negative control and baseline of activity. Using a type of inducible reporter, measures of mRNA for gain-of-signal activity can be used to understand the reporter gene at the transcription factor-level as they relate to the gene RORB. Furthermore, this assay endpoint can be referred to as a primary readout, because this assay has produced multiple assay endpoints where this one serves a reporter gene function. To generalize the intended target to other relatable targets, this assay endpoint is annotated to the nuclear receptor intended target family, where the subfamily is orphan.
Human liver HepG2 cells are transiently transfected with multiple reporter transcription units (MRTUs) in 6-well plates using FuGene 6 reagent (Roche; 3 ml FuGene/1 mg DNA). The MRTU constructs are regulated by a cis-regulating element (promoter). […] A major difference between the CIS and TRANS system is that in CIS activities of endogenous TFs are measured, whereas the TRANS assay evaluates changes in activities of exogenous, chimeric NR-Gal4 proteins. […] At the end of 24 hour incubation, total RNA was isolated using TriZol reagent (Invitrogen). The isolated RNA is then reverse-transcribed using oligo(dT) primer and Mo-MLV reverse transcriptase (Invitrogen) with DNAse I (Ambion) treatment for 30 min. The one-tenth of the produced cDNA was amplified by PCR using Taq DNA polymerase (Invitrogen) and two reporter sequence-specific primers. The PCR products were fluorescently labeled by primer extension with 6-arboxyfluorescein (6-FAM) 5'-labeled reporter sequence-specific primer (2 min at 95 C, 20 s at 68 C and 10 min at 72 C) and these products were digested with 5U of HpaI (New England Biolabs) for 2h at 37 C. The fragments were purified using Qiaquick PCR columns (Qiagen), analyzed on an ABI 3130xL genetic analyzer (Applied Biosystems) with peak positions identified by using a set of X-rhodamine (ROX)-labeled MapMarker1000 molecular weight standards (BioVentures). The raw capillary electrophoresis data was processed using Attagraph software (Attagene).
With `CC(C)(c1ccc(OCC2CO2)cc1)c1ccc(OCC2CO2)cc1` (stereo not given) the AC50 was inconclusive: 79.5 µM.
In the case of `COc1cc(OC)c(OC)cc1C=O`, the AC50 is reported as inconclusive: 97.5 µM.
With `Cl/C=C/Cl` the outcome was “inactive”.
In the case of `CCOP(=S)(OCC)Oc1nc(Cl)c(Cl)cc1Cl`, the outcome is reported as “inactive”.
For `COC(C)(C)CCC[C@H](C)C/C=C/C(C)=C/C(=O)OC(C)C`, the AC50 was inconclusive: 27.3 µM.
With `Clc1ccc(C2(Cn3cncn3)CC(Br)CO2)c(Cl)c1` (stereo not given) the AC50 was inconclusive: 1.8 µM.
In the case of `CC(C)C(=O)OCC(C)(C)C(OC(=O)C(C)C)C(C)C` (stereo not given), the AC50 is reported as inconclusive: 100 µM.
`CCCSP(=O)(OCC)SCCC` was tested, and the outcome was “inactive”.
`OC[P+](CO)(CO)CO` was tested, and the AC50 was inconclusive: 100 µM and inconclusive: 77.5 µM.
For `C[C@]12CCC(=O)C[C@@H]1CC[C@@H]1[C@@H]2CC[C@]2(C)[C@@H](O)CC[C@@H]12`, the outcome was “inactive” and the AC50 was inconclusive: 4.67 µM and inconclusive: 13.3 µM and inconclusive: 25.7 µM.
`CC1=C2C[C@H]3[C@@H](CC=C4C[C@@H](O)CC[C@@]43C)[C@@H]2CC[C@]12O[C@@H]1C[C@H](C)CN[C@H]1[C@H]2C` was tested, and the AC50 was inconclusive: 0.0357 µM.
`Nc1c(Cl)c(Cl)nc(C(=O)O)c1Cl` was tested, and the AC50 was inconclusive: 50 µM.
`Cc1ccccc1CCl` was tested, and the outcome was “inactive”.
For `CCOc1nc(F)cc2nc(S(=O)(=O)Nc3c(Cl)cccc3Cl)nn12`, the AC50 was inconclusive: 74.9 µM.
For `COCCl`, the AC50 was inconclusive: 35 µM.
`CO/N=C(/C(=O)OC)c1ccccc1COc1ccccc1C` was tested, and the outcome was “inactive”.
`ClC(Cl)=C(c1ccc(Cl)cc1)c1ccc(Cl)cc1` was tested, and the outcome was “inactive” and the AC50 was inconclusive: 172 µM and inconclusive: 100 µM.
`CCc1nn(C)c(C(=O)NCc2ccc(C(C)(C)C)cc2)c1Cl` was tested, and the AC50 was inconclusive: 5 µM.
With `CN(C)CCC#N` the AC50 was inconclusive: 100 µM.
In the case of `O=C(O)COc1ccccc1`, the AC50 is reported as inconclusive: 170 µM.
For `O=S1OCC2C(CO1)C1(Cl)C(Cl)=C(Cl)C2(Cl)C1(Cl)Cl` (stereo not given), the AC50 was inconclusive: 0.476 µM.
With `N#CCCCCC#N` the AC50 was inconclusive: 1.25 µM.
With `C=CC(F)(C(F)(F)F)C(F)(F)C(F)(F)F` (stereo not given) the AC50 was inconclusive: 150 µM.
`ClC1=C(Cl)[C@]2(Cl)[C@@H]3[C@@H](Cl)[C@@H](Cl)C[C@@H]3[C@@]1(Cl)C2(Cl)Cl` was tested, and the AC50 was inconclusive: 85 µM.
For `CCCCCCCCSC(=O)Oc1cc(Cl)nnc1-c1ccccc1`, the AC50 was inconclusive: 126 µM.
`C[As+](C)(C)CC(=O)[O-]` was tested, and the outcome was “inactive”.
In the case of `O=S(=O)(O)C(F)(F)C(F)(F)C(F)(F)C(F)(F)F`, the AC50 is reported as inconclusive: 150 µM and inconclusive: 20.8 µM.
In the case of `CCOC(=O)CCN(SN(C)C(=O)Oc1cccc2c1OC(C)(C)C2)C(C)C`, the AC50 is reported as inconclusive: 5.53 µM.
For `CC(C)Oc1cccc(NC(=O)c2ccccc2C(F)(F)F)c1`, the outcome was “inactive”.
`CC(C)Nc1ccc(Nc2ccccc2)cc1` was tested, and the AC50 was inconclusive: 33.4 µM.
`COC(=O)C=C(C)OP(=O)(OC)OC` was tested, and the outcome was “inactive”.
With `N#CN=C(N)N` the AC50 was inconclusive: 178 µM.
